According to publication PMC9915769, “A novel binding site on the cryptic intervening domain is a motif-dependent regulator of O-GlcNAc transferase” (Research Square, 2023):
These are yes or no findings as the source states them, for the method shown. In cells and extracts the contact can be indirect. A result given as binding can be weak or reduced; the word gives no strength. Tags and fused reporters may be left off the sequences shown.

Protein sequences, listed by entry. Tags and fused reporters are not part of them. Lines headed by an entry give the natural chain unless they say otherwise; changes in a name come on top.
UniProt O15294: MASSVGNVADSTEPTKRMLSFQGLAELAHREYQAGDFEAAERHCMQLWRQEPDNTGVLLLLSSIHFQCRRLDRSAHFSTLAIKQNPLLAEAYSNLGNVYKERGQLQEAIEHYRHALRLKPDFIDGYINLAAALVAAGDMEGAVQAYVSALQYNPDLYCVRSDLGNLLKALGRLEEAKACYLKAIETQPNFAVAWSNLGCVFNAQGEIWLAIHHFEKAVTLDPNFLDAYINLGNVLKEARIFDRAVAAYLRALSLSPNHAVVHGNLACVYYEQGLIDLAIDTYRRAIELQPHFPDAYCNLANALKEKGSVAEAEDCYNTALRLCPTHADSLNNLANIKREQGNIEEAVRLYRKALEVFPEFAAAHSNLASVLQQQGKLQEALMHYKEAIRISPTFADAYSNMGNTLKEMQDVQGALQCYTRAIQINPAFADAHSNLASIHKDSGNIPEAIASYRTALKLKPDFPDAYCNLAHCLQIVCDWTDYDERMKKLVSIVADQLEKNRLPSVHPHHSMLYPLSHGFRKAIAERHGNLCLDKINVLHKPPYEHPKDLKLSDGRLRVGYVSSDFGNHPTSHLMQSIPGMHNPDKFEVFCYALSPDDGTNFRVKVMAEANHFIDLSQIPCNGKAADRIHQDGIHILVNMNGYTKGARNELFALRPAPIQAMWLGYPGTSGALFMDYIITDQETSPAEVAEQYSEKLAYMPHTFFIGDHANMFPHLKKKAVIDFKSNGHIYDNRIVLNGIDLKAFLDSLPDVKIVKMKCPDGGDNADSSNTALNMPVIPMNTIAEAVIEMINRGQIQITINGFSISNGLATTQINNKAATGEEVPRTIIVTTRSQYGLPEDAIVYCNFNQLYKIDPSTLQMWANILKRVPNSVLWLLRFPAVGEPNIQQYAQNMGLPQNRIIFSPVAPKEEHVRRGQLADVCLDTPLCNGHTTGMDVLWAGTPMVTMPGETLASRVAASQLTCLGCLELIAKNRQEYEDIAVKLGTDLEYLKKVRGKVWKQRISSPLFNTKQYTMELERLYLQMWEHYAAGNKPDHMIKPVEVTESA

How the values were obtained:
Assay in all cases: co-IP; HEK293 cells (legend: TRex-293) co-transfected with Flag-OGT and cMyc-SMG9 constructs; lysate (150 mM NaCl, 1% NP-40, 20 mM Tris-HCl pH 7.4) on Flag M2 agarose 16 h at 4 C; western blot
[1] = target: Flag-tagged OGT I734R, mammalian expression (human)
[2] = target: Flag-tagged OGT I787E, mammalian expression (human) (UniProt O15294)
[3] = target: Flag-tagged OGT N791A, mammalian expression (human)
[4] = target: double mutant OGT (I787E-N791A), mammalian expression (human)

Measured: binding

B1: cMyc-tagged SMG9 (wild type) (protein, UniProt Q9H0W8 1-520)
chain: MSESGHSQPGLYGIERRRRWKEPGSGGPQNLSGPGGRERDYIAPWERERRDASEETSTSVMQKTPIILSKPPAERSKQPPPPTAPAAPPAPAPLEKPIVLMKPREEGKGPVAVTGASTPEGTAPPPPAAPAPPKGEKEGQRPTQPVYQIQNRGMGTAAPAAMDPVVGQAKLLPPERMKHSIKLVDDQMNWCDSAIEYLLDQTDVLVVGVLGLQGTGKSMVMSLLSANTPEEDQRTYVFRAQSAEMKERGGNQTSGIDFFITQERIVFLDTQPILSPSILDHLINNDRKLPPEYNLPHTYVEMQSLQIAAFLFTVCHVVIVVQDWFTDLSLYRFLQTAEMVKPSTPSPSHESSSSSGSDEGTEYYPHLVFLQNKARREDFCPRKLRQMHLMIDQLMAHSHLRYKGTLSMLQCNVFPGLPPDFLDSEVNLFLVPFMDSEAESENPPRAGPGSSPLFSLLPGYRGHPSFQSLVSKLRSQVMSMARPQLSHTILTEKNWFHYAARIWDGVRKSSALAEYSRLLA
binds: all assays above
